Laboratory results from doi:10.1101/871517.

Chains of the proteins cited; added tags and fusions are not shown.
UniProt Q9NP72: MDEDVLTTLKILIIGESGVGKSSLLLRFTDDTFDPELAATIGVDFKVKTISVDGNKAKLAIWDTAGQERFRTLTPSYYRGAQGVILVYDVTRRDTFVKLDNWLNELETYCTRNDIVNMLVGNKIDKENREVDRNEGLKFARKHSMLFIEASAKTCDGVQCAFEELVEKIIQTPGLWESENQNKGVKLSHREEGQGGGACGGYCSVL
UniProt A2RRP1: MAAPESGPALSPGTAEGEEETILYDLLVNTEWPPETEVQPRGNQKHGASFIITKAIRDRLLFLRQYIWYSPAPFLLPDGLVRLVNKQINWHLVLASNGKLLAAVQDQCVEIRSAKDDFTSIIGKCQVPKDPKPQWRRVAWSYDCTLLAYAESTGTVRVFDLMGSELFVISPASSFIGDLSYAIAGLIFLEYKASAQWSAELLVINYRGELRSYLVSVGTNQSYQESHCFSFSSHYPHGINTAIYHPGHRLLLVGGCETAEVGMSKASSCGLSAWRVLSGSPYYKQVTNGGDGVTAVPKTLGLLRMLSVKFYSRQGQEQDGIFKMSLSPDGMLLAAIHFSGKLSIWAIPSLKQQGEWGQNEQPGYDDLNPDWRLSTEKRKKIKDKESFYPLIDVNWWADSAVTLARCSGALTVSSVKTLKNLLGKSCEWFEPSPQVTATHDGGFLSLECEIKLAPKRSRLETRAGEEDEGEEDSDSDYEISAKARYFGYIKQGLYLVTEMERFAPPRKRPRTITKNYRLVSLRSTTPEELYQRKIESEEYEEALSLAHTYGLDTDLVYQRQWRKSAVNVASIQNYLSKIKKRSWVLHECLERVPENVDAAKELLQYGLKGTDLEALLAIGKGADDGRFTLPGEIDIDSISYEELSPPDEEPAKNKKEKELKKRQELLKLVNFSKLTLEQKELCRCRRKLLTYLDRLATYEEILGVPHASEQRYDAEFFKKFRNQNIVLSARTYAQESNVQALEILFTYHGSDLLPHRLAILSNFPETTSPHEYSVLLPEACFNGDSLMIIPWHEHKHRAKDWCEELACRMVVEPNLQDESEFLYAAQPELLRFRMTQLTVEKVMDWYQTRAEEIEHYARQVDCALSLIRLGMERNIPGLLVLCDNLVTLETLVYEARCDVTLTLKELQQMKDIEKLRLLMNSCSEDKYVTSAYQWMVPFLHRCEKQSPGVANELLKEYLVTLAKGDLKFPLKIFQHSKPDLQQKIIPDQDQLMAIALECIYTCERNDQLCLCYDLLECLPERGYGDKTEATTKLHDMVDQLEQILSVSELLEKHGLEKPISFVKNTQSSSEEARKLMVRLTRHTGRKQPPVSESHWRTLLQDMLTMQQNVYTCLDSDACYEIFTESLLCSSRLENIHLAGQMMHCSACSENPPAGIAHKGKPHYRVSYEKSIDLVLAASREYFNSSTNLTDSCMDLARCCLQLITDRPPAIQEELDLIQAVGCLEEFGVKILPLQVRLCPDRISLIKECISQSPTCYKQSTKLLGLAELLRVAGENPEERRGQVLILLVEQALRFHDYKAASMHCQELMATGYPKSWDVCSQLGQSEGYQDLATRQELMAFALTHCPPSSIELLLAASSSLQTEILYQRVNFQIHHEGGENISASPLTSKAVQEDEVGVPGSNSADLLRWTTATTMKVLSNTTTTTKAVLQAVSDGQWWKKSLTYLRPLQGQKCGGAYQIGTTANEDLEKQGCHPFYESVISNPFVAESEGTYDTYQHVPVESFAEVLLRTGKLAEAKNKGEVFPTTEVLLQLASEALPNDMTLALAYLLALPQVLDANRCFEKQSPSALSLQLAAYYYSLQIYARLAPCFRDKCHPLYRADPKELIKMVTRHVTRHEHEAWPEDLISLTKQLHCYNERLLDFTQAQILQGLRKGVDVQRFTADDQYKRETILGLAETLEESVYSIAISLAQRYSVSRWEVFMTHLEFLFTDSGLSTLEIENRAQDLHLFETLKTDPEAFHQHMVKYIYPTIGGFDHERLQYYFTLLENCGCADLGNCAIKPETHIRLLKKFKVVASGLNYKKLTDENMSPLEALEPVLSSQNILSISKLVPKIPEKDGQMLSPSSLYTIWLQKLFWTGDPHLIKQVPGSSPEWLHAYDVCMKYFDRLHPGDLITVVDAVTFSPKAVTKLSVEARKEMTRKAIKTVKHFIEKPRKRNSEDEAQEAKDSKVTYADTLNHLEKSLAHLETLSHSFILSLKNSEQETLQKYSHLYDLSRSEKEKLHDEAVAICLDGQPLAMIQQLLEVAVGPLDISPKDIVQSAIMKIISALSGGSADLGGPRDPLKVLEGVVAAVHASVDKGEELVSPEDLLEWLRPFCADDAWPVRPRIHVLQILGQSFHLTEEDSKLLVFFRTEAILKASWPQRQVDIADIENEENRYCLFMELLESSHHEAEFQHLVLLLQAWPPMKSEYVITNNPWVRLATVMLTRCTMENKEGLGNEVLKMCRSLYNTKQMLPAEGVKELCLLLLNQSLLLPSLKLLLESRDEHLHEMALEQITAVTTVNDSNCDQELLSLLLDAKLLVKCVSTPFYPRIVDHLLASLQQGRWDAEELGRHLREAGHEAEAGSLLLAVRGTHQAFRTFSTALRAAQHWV
UniProt Q6NUQ1: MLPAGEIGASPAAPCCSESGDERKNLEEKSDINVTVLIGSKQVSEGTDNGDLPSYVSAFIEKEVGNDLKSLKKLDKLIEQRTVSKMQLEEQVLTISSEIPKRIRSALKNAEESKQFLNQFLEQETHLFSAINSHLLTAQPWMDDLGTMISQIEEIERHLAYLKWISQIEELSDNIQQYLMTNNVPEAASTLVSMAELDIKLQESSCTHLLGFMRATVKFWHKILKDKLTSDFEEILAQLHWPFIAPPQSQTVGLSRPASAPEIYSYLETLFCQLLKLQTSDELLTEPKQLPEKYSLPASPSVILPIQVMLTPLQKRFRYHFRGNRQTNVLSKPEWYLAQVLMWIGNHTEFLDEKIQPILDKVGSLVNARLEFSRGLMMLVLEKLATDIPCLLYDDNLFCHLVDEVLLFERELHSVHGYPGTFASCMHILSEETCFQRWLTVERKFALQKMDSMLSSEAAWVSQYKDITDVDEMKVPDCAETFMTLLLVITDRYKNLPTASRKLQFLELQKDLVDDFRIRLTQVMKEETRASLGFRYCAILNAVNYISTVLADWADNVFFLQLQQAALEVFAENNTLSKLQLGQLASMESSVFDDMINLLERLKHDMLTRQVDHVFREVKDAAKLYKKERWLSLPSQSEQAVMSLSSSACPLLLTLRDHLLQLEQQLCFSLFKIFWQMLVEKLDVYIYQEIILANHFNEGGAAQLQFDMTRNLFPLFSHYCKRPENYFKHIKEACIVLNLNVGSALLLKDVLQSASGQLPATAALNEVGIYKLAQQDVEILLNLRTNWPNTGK
UniProt Q5T5Y3: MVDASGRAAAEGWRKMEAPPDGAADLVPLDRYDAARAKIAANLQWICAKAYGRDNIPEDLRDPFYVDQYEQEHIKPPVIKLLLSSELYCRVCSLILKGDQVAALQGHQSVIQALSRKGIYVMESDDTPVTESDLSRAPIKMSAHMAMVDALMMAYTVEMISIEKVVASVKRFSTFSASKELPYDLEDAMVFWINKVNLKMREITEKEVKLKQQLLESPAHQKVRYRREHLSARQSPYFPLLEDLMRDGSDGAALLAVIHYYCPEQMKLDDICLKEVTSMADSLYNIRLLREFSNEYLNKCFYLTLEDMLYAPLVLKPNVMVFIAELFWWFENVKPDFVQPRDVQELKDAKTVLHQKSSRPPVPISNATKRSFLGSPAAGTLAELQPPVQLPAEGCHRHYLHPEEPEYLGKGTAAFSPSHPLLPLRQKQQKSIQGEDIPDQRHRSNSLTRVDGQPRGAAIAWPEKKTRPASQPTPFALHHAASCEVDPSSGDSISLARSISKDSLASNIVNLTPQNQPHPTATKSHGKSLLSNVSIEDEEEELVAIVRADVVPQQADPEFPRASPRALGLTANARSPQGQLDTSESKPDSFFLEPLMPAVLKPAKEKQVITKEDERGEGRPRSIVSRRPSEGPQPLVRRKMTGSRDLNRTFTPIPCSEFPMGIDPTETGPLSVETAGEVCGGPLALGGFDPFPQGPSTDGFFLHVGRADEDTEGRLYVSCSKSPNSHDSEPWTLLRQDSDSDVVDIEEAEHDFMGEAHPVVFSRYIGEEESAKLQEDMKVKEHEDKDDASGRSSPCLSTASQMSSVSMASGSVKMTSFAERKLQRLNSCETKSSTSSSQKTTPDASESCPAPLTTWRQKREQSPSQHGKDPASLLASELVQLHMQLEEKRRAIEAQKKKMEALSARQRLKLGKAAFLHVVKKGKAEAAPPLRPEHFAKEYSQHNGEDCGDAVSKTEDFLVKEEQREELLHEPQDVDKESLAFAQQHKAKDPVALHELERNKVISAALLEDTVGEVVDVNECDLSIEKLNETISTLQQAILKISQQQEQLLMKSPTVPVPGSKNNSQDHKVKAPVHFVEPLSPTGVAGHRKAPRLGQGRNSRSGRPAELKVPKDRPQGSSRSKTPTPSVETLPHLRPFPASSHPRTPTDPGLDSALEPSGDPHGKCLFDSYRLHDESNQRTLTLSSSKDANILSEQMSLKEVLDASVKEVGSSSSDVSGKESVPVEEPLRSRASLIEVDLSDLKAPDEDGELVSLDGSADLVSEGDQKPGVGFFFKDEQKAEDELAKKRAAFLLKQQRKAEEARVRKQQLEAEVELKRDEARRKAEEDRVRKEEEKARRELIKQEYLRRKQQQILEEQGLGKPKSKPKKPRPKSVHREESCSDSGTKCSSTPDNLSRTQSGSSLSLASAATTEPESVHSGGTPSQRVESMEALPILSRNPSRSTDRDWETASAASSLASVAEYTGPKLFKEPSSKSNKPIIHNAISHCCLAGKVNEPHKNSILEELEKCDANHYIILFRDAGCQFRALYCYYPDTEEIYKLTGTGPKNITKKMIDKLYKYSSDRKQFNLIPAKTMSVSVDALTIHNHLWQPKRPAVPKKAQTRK
UniProt Q8TD16: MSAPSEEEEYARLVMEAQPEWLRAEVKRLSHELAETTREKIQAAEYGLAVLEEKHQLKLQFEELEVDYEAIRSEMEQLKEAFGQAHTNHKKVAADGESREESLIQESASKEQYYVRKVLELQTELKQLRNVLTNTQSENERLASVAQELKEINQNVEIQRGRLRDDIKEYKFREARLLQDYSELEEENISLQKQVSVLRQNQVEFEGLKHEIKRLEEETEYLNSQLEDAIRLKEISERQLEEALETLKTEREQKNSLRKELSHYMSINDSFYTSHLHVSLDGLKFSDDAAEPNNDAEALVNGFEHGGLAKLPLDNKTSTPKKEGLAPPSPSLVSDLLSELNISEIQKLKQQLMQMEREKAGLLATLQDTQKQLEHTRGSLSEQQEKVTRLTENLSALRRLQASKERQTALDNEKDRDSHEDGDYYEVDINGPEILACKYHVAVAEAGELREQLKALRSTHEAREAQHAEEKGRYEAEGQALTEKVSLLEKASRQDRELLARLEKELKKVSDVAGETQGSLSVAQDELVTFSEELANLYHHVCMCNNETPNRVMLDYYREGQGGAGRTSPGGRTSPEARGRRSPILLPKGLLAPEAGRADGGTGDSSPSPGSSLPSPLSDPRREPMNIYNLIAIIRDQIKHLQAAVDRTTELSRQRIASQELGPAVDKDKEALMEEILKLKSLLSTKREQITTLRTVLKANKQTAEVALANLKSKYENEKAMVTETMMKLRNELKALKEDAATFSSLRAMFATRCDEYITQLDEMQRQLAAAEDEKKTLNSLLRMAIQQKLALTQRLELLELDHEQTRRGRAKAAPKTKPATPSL
UniProt Q9Y426: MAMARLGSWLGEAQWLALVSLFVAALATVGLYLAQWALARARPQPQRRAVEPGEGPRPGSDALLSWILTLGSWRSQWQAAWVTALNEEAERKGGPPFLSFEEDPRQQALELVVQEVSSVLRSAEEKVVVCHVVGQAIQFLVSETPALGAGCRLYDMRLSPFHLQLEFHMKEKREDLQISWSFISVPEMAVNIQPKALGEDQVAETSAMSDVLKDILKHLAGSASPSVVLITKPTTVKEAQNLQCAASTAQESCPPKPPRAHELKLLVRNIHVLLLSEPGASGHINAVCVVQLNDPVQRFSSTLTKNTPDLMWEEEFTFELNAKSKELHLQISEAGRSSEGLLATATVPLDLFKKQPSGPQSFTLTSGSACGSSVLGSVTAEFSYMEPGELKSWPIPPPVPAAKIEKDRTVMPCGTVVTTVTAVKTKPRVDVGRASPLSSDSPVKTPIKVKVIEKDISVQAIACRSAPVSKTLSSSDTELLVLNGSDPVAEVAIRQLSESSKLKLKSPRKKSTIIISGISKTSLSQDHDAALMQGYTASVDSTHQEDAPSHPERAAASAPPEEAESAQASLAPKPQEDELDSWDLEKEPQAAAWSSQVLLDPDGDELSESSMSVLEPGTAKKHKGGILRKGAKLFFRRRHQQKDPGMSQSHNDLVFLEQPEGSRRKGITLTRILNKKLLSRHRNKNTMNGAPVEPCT

Target: BirA*-RAB18 (UniProt Q9NP72)
Assay: proximity labelling

binding, binds:
INPP5B (endogenous) (from UniProt P32019 1-993)
NBAS (from UniProt A2RRP1 1-2371)
RINT1 (from UniProt Q6NUQ1 1-792)
CAMSAP1 (from UniProt Q5T5Y3 1-1602)
BICD2 (from UniProt Q8TD16 1-824)
C2CD2 (from UniProt Q9Y426 1-696)

Target: T1, BioID2(Gly40Ser)-SEC22A (human) (UniProt Q96IW7)
T1 sequence: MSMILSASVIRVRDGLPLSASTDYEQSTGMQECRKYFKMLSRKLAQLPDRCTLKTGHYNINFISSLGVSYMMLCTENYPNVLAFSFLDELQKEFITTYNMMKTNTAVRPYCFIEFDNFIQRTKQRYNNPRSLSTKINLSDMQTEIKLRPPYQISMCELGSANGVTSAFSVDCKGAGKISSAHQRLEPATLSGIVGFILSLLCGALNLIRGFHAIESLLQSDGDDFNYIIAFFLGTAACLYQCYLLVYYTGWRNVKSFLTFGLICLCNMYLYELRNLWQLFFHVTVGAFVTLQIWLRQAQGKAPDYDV
Assay: proximity labelling

binding, binds:
RAB18 (endogenous) (from UniProt Q9NP72 1-206)

Results are given in words; binding and its absence hold for the method and conditions named. Binding seen in cells or lysates may run through a third protein. A yes stands for co-enrichment or nearness to the bait. Other partners may have been found.
